Measurements as given in patent publication US9428464B2, “Kynurenine-3-monooxygenase inhibitors, pharmaceutical compositions, and methods of use thereof” (CHDI Foundation, Inc., priority 2011, dated 2016).
At least one structure is not confirmed: it was looked up by name or label, or the drawing left a doubt.

Test system: KMO
Test: KMO activity assay: L-Kynurenine hydroxylation to 3-Hydroxy-Kynurenine, quantified by LC/MS
Format: biochemical
Settings: compound at 10 uM; footnote: some portion of activity of amides may be due to contribution of acid precursor
Experimental: A generalized procedure for monitoring L-Kynurenine (KYN) hydroxylation to form product 3-Hydroxy-Kynurenine (3OH-KYN) by LC/MS is described below. Product is quantified by multiple reaction monitoring using MS.
A method of monitoring L-Kynurenine (KYN) hydroxylation to form product 3-Hydroxy-Kynurenine (3OH-KYN) by LC/MS is described below. Product is quantified by multiple reaction monitoring.
• Compound: Stock concentrations: 10 mM in 100% DMSO • Enzyme: KMO enzyme prepared at Evotec via mitochondria isolation from CHO-GST HIS KMO cells • Substrate: L-Kynurenine (Sigma: Cat #K3750) • [stock concentration: 10 mM in 100 mM potassium phosphate buffer, pH 7.4]
A method of monitoring L-Kynurenine (KYN) hydroxylation to form 3-Hydroxy-Kynurenine (3OH-KYN) by LC/MS is described. Product is quantified by multiple reaction monitoring (MRM method).

SMILES | % Inhibition at 10 uM [%]
O=C(O)C1CCN(C(=O)c2cc(-c3cccc(Br)c3)ncn2)C1 (centres unmarked) [1-[6-(3-Bromo-phenyl)-pyrimidine-4-carbonyl]-pyrrolidine-3-carboxylic acid] | 93.05
O=C(OCCN1CCOCC1)c1cc(-c2ccc(Cl)c(Cl)c2)ncn1 [2-(morpholin-4-yl)ethyl 6-(3,4-dichlorophenyl)pyrimidine-4-carboxylate] | 100
O=C(NCCO)c1cc(-c2ccc(Cl)c(Cl)c2)ncn1 [6-(3,4-Dichloro-phenyl)-pyrimidine-4-carboxylic acid (2-hydroxy-ethyl)-amide] | 76.68
O=C([O-])c1cc(-c2cccc(Br)c2)ncn1.[Na+] [6-(3-Bromo-phenyl)-pyrimidine-4-carboxylic acid sodium salt] | 101.5
O=C(Nc1cccnc1)c1cc(-c2ccc(Cl)c(F)c2)ncn1 [6-(4-Chloro-3-fluoro-phenyl)-pyrimidine-4-carboxylic acid pyridin-3-yl-amide] | 94.48
